Laboratory results: PubChem BioAssay AID1259254 (NCATS, 2017)
Test: 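Genome-wide screen for genes that prevent DNA re-replication in cancer cells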 (primary screen). Cell system: human HCT116 colorectal cancer cells. Knock-down reagent: single siRNA against human genes. Duration: 3 days. Measurement: 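Imaged Hoechst DNA stain sorts each cell into a cycle phase by DNA amount; per plate, G2 fraction set to 0% for non-targeting and 100% for GMNN siRNA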. Reading the numbers: G2 robust z-score and G2 cells, % of GMNN control: higher = more G2 cells, more excess DNA replication; raw share of cells in G2: higher = larger share of cells with G2 DNA content. Active means: 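Active siRNAs have a G2 robust z of 5 or more median absolute deviations over the median, which in these data means about 38% or higher of GMNN control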.
The deposit covers about 59,000 reagents; shown is an unselected part. Over the whole deposit, about 1,550 (2.6%) are marked active. 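G2 share is only a proxy for re-replication; each gene was hit by three separate siRNAs, and active genes were retested.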 Raw values vary from plate to plate and are shown uncorrected. Unmarked entries are inactive. Reagents against one gene are numbered here. Not stated in the record: the amount of reagent.

| Target gene | siRNA no. | G2 robust z-score | G2 cells, % of GMNN control | raw share of cells in G2 (%) |
| --- | --- | --- | --- | --- |
| NINL | 1 | 3.32 | 26.3 | 13 |
| NINL | 2 | -1.7 | -8.98 | 2.76 |
| NINL | 3 | 0.814 | 8.7 | 6.84 |
| LOC730098 | 1 | -0.191 | 1.63 | 4.11 |
| LOC730098 | 2 | 0.208 | 4.43 | 5.41 |
| LOC730098 | 3 | -0.509 | -0.617 | 3.25 |
| BACE2 | 1 | 1.11 | 10.8 | 9.33 |
| BACE2 | 2 | 2.87 | 23.2 | 13.1 |
| BACE2 | 3 | -0.239 | 1.29 | 4.39 |
| MAP3K7CL | 1 | -0.544 | -0.86 | 4.01 |
| MAP3K7CL | 2 | -0.443 | -0.149 | 4.39 |
| MAP3K7CL | 3 | 0.0354 | 3.22 | 4.05 |
| EVPLL | 1 | -0.44 | -0.127 | 3.23 |
| EVPLL | 2 | -1.32 | -6.29 | 1.31 |
| EVPLL | 3 | 1.19 | 11.3 | 7.94 |
| ARHGEF26 | 1 | 1.29 | 12.1 | 8.95 |
| ARHGEF26 | 2 | -0.802 | -2.68 | 2.78 |
| ARHGEF26 | 3 | 0.773 | 8.41 | 6.24 |
| MVB12A | 1 | 2.45 | 20.2 | 9.35 |
| MVB12A | 2 | 0.0848 | 3.56 | 2.86 |
| MVB12A | 3 | 0.813 | 8.69 | 7.57 |
| SLC4A5 | 1 | 4.09 | 31.7 | 15.7 |
| SLC4A5 | 2 | -0.117 | 2.14 | 6.53 |
| SLC4A5 | 3 | -0.748 | -2.3 | 3.53 |
| SDK1 | 1 | -0.169 | 1.78 | 5.45 |
| SDK1 | 2 | -0.144 | 1.95 | 5.42 |
| SDK1 | 3 | 3.13 | 25 | 17.9 |
| OR6C68 | 1 | -0.553 | -0.925 | 3.47 |
| OR6C68 | 2 | 0.0559 | 3.36 | 4.85 |
| OR6C68 | 3 | 0.89 | 9.23 | 8.62 |
| RNF125 | 1 | -0.34 | 0.578 | 3 |
| RNF125 | 2 | 3.82 | 29.9 | 19.4 |
| RNF125 | 3 | 0.823 | 8.76 | 6.38 |
| GRB2 | 1 | -0.605 | -1.29 | 3.02 |
| GRB2 | 2 | 1.89 | 16.3 | 12.9 |
| GRB2 | 3 | -0.762 | -2.39 | 3.21 |
| ZNF517 | 1 | -0.0308 | 2.75 | 4.04 |
| ZNF517 | 2 | 0.834 | 8.84 | 6.23 |
| ZNF517 | 3 | -0.26 | 1.14 | 3.92 |
| BTG1 | 1 | 3.99 | 31.1 | 19.9 |
| BTG1 | 2 | -0.492 | -0.495 | 3.91 |
| BTG1 | 3 | -0.506 | -0.593 | 3.29 |
| ECE1 | 1 | -1.02 | -4.21 | 3.66 |
| ECE1 | 2 | -0.78 | -2.52 | 4.8 |
| ECE1 | 3 | 1.85 | 16 | 8.81 |
| MFRP | 1 | -0.844 | -2.97 | 3.12 |
| MFRP | 2 | 6.26 (active) | 47 | 22.2 |
| MFRP | 3 | 2.38 | 19.7 | 13.6 |
